These are yes or no findings as the source states them, for the method shown. Binding seen in cells or lysates may run through a third protein. Some binding calls cover weakened binding; strength is not graded here.
Biological target: Cdk5 immunoprecipitated from mouse striatal homogenate (mouse) (UniProt P49615)
Assay: co-immunoprecipitation from mouse striatal homogenate with immunoblotting

Chains of the proteins cited; added tags and fusions are not shown. Residues count along the entry.
UniProt P61809, residues 2-307: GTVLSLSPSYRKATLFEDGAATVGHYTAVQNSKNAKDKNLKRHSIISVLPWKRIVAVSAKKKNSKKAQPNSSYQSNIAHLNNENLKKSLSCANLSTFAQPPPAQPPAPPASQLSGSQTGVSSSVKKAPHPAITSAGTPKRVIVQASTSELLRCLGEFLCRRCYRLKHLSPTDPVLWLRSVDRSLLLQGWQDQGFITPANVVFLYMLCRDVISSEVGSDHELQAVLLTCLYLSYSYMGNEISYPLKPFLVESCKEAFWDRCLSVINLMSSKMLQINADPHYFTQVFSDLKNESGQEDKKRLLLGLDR

binding: binds
Substance: p35 (from UniProt P61809 2-307)
